Sequences of proteins named here, by UniProt entry; tags and fusion partners are left off. A change or cut given only in a name is not applied to a line headed by its entry.
UniProt Q7JQ07: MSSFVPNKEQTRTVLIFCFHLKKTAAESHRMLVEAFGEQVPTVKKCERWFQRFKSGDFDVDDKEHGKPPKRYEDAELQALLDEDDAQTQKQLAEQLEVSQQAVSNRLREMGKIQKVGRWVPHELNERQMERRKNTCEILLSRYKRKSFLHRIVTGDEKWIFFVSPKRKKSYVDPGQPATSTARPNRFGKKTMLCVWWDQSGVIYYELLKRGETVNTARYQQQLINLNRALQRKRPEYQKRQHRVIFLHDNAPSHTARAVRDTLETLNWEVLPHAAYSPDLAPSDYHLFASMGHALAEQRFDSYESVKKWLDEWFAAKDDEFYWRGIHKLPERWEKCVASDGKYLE

In paper PMC12062965, “Transposable Elements Drive Regulatory and Functional Innovation of F-box Genes”:

What was measured:
Test in all cases: EMSA
GST-Mos1 double HTH = GST-Mos1 double HTH (UniProt Q7JQ07); settings: 50 mM Tris-HCl pH 7.5, 150 mM NaCl, 1 mM DTT, protease inhibitors, 2.5% glycerol, 77.3 nM DNA, 25 C 15 min; native 1.5% agarose gel in TBE at 4 C, SYBR Gold stain; recombinant protein; protein details: N-terminal GST
[1] = biological target: GST-FBXA-192 HTH (Caenorhabditis elegans) (UniProt Q9XUX2); settings: 50 mM Tris-HCl pH 7.5, 150 mM NaCl, 1 mM DTT, protease inhibitors, 2.5% glycerol, 77.3 nM DNA, 25 C 15 min; native 1.5% agarose gel in TBE at 4 C, SYBR Gold stain; recombinant protein; protein details: N-terminal GST
[2] = biological target: GST-FBXA-215 HTH (Caenorhabditis elegans) (UniProt A0A8S4Q9N7); settings: 50 mM Tris-HCl pH 7.5, 150 mM NaCl, 1 mM DTT, protease inhibitors, 2.5% glycerol, 77.3 nM DNA, 25 C 15 min; native 1.5% agarose gel in TBE at 4 C, SYBR Gold stain; recombinant protein; protein details: N-terminal GST
[3] = biological target: T1, GST-FBXA-192 FL (Caenorhabditis elegans) (UniProt Q9XUX2); settings: 50 mM Tris-HCl pH 7.5, 150 mM NaCl, 1 mM DTT, protease inhibitors, 2.5% glycerol, 77.3 nM DNA, 25 C 15 min; native 1.5% agarose gel in TBE at 4 C, SYBR Gold stain; recombinant protein; residues 1-401; protein details: N-terminal GST
T1 sequence (looked up): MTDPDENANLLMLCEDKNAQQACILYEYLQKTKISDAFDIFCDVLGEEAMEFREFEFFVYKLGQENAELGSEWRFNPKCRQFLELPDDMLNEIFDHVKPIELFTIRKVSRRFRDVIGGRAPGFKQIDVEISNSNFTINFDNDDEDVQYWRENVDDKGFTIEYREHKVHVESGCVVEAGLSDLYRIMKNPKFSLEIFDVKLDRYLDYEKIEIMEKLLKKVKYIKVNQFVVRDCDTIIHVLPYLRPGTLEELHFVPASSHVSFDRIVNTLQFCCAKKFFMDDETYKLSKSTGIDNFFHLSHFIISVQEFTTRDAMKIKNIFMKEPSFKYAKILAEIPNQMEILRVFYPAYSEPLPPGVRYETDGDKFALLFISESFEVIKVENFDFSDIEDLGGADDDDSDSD

[4] = biological target: T2, GST-FBXA-215 FL (Caenorhabditis elegans) (UniProt A0A8S4Q9N7); settings: 50 mM Tris-HCl pH 7.5, 150 mM NaCl, 1 mM DTT, protease inhibitors, 2.5% glycerol, 77.3 nM DNA, 25 C 15 min; native 1.5% agarose gel in TBE at 4 C, SYBR Gold stain; recombinant protein; residues 1-401; protein details: N-terminal GST
T2 sequence (looked up): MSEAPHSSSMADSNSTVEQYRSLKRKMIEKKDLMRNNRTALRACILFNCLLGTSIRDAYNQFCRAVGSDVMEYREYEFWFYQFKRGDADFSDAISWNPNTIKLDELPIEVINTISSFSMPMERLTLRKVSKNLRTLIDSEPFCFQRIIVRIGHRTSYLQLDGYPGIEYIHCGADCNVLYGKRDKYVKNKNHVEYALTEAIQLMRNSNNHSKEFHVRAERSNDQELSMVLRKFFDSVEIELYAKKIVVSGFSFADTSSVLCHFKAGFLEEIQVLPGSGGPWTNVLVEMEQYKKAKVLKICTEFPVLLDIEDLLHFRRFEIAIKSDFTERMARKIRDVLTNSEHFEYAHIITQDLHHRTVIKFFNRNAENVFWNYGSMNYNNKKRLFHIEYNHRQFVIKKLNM

TTTCTTTTTCCACAAAATTTAACGTGTTTTTTGATTTAAAAAAAACGACATTTCATACTTGTACACCTGA (double strand) [Mos1 right TIR (IRR100)]
binding result (GST-Mos1 double HTH): binds
binding result [1]: no binding
binding result [2]: no binding

TATTAGGTTGGTCAAAAAGTCTTTGCAAAATTTTATTAGGTTGGTCGAAAAGTCTTTGCAAAATTT (double strand) [Mariner3-like TIR]
binding result [3]: no binding
binding result [1]: no binding
binding result [4]: no binding
binding result [2]: no binding

TACAGTGTGGGAAAGTTCTATAGGACCCCCCCTAATTTTACAGTGTGGGAAAGTTCTATAGGACCCCCCCTAATTT (double strand) [Tc3 TIR]
binding result [3]: no binding
binding result [1]: no binding
binding result [4]: no binding
binding result [2]: no binding

AGTGGATATCTTTTTGGCCAGCACTGTAAGTGGATATCTTTTTGGCCAGCACTGTA (double strand) [Tc1 TIR]
binding result [3]: no binding
binding result [1]: no binding
binding result [4]: no binding
binding result [2]: no binding

AGTACAAAAACTTATGGGACAACCTGATAAGTACAAAAACTTATGGGACAACCTGATA (double strand) [Mariner2-like TIR]
binding result [3]: no binding
binding result [1]: no binding
binding result [4]: no binding
binding result [2]: no binding

For some of these results: No signal at the amounts used counts as a negative. For some of these results: At least one verdict rests on a figure or table, not on a statement of the authors. For some of these results: Where a protein sequence is shown, tags need not be part of it. For some of these results: For at least one entry, the source does not settle the construct or the ends of the probe.
